Data from patent US10517863B2, “Trilobine and its natural analogs for use as a drug” (PIERRE FABRE MEDICAMENT, priority 2015, dated 2019).
For at least one compound, name, drawing or mass did not settle the structure.

Tested on: luciferase reporter under the control of a methylated CMV promoter in leukemia KG-1 cells
Test: CMV-luc reexpression (luciferase reporter) in KG-1 cells
Assay type: cell-based, human
Conditions: 10 μM, 24 hour incubation, fold induction vs DMSO, mean ± standard error
Protocol: Aiming at identifying new DNMT inhibitors, plant extract samples were tested for their ability to reactivate gene expression upon use of an integrated luciferase reporter system under the control of a methylated CMV promoter in leukemia KG-1 cells which inhibits its expression (CMV-luc assay reported in following Table). […] The extract was fractionated by preparative HPLC. Identification of the active components was accomplished by HRMS and NMR spectroscopy. The pure compounds isolated from the extract through bio-guided fractionation are trilobine and bisbenzylisoquinoline analogue products. The active compounds were then further evaluated for their ability to inhibit DNMTs in vitro and DNA methylation in cancer cells.
KG-1 cells were stably transfected with the firefly luciferase reporter gene (luc+ from pGL3; Promega) under the control of the cytomegalovirus (CMV) promoter (from pEGFP-N1; Clontech Laboratories Inc.) partially methylated (50%). […] After 24 hour incubation in the presence of the test compound or solvant (DMSO), the induction of the promoter was measured by quantification of the luciferase signal with the Brite-lite assay system (PerkinElmer) according to the manufacturer's protocol. The luminescence was measured on an EnVision multilabel plate reader (PerkinElmer), and the data are expressed as the fold induction as compared with the DMSO control. […]

In the case of `COc1ccc2cc1Oc1ccc(cc1)C[C@@H]1NCCc3cc(OC)c4c(c31)Oc1cc3c(cc1O4)CCN(C)[C@H]3C2` [Compound 1, Trilobine], the “Reactivation fold of luciferase gene reporter in KG-1 CMV-Luc” value is reported as “cyt. tox”.
